These are yes or no findings as the source states them, for the method shown. Some results given as binding are weak or reduced against the parent protein; the word gives no strength. For part of these data: Tags and fused reporters may be left off the sequences shown.
B1: Shigella flexneri IpaH7.8 without affinity tag (co-expressed with GSDMB) (enzyme)
chain: MFSVNNTHSSVSCSPSINSNSTSNEHYLRILTEWEKNSSPGEERGIAFNRLSQCFQNQEAVLNLSDLNLTSLPELPKHISALIVENNKLTSLPKLPAFLKELNADNNRLSVIPELPESLTTLSVRSNQLENLPVLPNHLTSLFVENNRLYNLPALPEKLKFLHVYYNRLTTLPDLPDKLEILCAQRNNLVTFPQFSDRNNIRQKEYYFHFNQITTLPESFSQLDSSYRINISGNPLSTRVLQSLQRLTSSPDYHGPQIYFSMSDGQQNTLHRPLADAVTAWFPENKQSDVSQIWHAFEHEEHANTFSAFLDRLSDTVSARNTSGFREQVAAWLEKLSASAELRQQSFAVAADATESCEDRVALTWNNLRKTLLVHQASEGLFDNDTGALLSLGREMFRLEILEDIARDKVRTLHFVDEIEVYLAFQTMLAEKLQLSTAVKEMRFYGVSGVTANDLRTAEAMVRSREENEFTDWFSLWGPWHAVLKRTEADRWAQAEEQKYEMLENEYSQRVADRLKASGLSGDADAEREAGAQVMRETEQQIYRQLTDEVLALRLSENGSRLHHS
notes: only the LRR domain is visible in the map; source: E. coli BL21 (DE3), co-expressed with His6-SUMO-GSDMB, complex purified (Ni-NTA, Hitrap Q, Superdex 200)

Protein sequences, listed by entry. Tags and fused reporters are not part of them. Lines headed by an entry give the natural chain unless they say otherwise; changes in a name come on top. Chains listed by the source or under a name are the forms on record and can include a tag or linker.
GSDMB D17S/R20Ins mutant (Q8TAX9, form named): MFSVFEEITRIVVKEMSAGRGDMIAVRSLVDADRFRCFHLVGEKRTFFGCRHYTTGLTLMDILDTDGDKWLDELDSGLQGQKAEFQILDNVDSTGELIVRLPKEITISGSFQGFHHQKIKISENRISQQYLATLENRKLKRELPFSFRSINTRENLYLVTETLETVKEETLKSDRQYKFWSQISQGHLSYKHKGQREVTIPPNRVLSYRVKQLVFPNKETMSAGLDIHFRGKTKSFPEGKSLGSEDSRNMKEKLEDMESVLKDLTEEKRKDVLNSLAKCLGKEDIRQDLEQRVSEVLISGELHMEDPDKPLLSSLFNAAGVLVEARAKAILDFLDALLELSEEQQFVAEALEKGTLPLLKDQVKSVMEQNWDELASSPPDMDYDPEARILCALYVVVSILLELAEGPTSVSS

Experiments:
Experiment in all cases: SEC; analytical gel filtration of IpaH7.8 incubated with GSDM (WT or mutants), fractions on Coomassie-stained SDS-PAGE; both purified
[1] = target: human GSDMD D17S/R20Ins mutant (human) (UniProt P57764)
[2] = target: GSDMB D17S/R20Ins mutant (human) (UniProt Q8TAX9)
[3] = target: T1, human GSDMD, full length (human), P57764; conditions: remark: other sources report otherwise
T1 chain: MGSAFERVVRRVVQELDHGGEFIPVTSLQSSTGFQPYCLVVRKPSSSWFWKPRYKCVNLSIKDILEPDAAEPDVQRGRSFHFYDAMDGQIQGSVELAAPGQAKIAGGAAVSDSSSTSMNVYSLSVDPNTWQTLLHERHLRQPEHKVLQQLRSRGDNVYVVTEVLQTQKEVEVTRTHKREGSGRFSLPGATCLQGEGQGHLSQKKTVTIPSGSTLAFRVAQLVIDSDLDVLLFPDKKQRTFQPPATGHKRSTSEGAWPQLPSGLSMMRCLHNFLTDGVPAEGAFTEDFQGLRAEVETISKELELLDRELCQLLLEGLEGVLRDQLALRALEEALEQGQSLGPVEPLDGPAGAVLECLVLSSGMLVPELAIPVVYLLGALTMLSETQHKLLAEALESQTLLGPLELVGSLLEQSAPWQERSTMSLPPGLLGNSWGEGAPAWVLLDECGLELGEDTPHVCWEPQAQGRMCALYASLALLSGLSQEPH

Molecule	binding [1]	binding [2]	binding [3]
Shigella flexneri IpaH7.8 (wild type), C-terminal 6XHis construct (from UniProt P18014 1-565) (enzyme)	no binding	no binding	–
B1	–	–	binds
